Data as given in PubChem BioAssay AID1259331 (Drosophila RNAi Screening Center, 2017).
The whole screen tested about 3,100 reagents; below is an unselected part. Of all reagents, 126 (4.1%) were called active. 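Calls are per reagent; zinc was so toxic that few knock-downs lowered ATP further, so most hits raise ATP.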 The raw values are shown without normalisation. Not stated in the record: the amount of reagent.

Test: 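Knock-downs that alter ATP level after a high zinc chloride dose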 (primary screen)
System: Drosophila S2R+ cells
Reagents: long dsRNA against Drosophila genes
Time to read-out: 5 days (4 days knock-down, then 1 day zinc)
Challenge: zinc chloride at 15 mM final level for 1 day
Read-out: 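Luminescent ATP assay standing in for viability; Z score is the mean over three replicate plates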
Scale: mean Z score: higher = more ATP than other wells, better survival under zinc; ATP luminescence: higher = more ATP, more viable cells
Hit rule: 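a reagent is called a hit when its Z score is above 1.5 or below -1.5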
Calls: active = hit, ATP up or down; inactive = not a hit

For CG11099 [DRSC06034], what does the deposit list?
mean Z score: 0.272; ATP luminescence, replicate 1: 73014; ATP luminescence, replicate 2: 78623; Call: inactive

Which result is listed for Nrg (Neuroglian) [DRSC17573]?
mean Z score: 0.437; ATP luminescence, replicate 1: 77043; ATP luminescence, replicate 2: 77044; Call: inactive

What is on record for Nrg (Neuroglian) [DRSC18688]?
mean Z score: -0.0354; ATP luminescence, replicate 1: 45594; ATP luminescence, replicate 2: 46246; Call: inactive

What is on record for Nrg (Neuroglian) [DRSC27797]?
mean Z score: 0.312; ATP luminescence, replicate 1: 66051; ATP luminescence, replicate 2: 61627; Call: inactive

What did the screen give for Ae2 (Anion exchanger 2) [DRSC08997]?
mean Z score: -0.251; ATP luminescence, replicate 1: 46280; ATP luminescence, replicate 2: 38071; Call: inactive

With Ae2 (Anion exchanger 2) [DRSC10969], what was measured?
mean Z score: -0.3; ATP luminescence, replicate 1: 26839; ATP luminescence, replicate 2: 26719; Call: inactive

With Dop1R1 (Dopamine 1-like receptor 1) [DRSC13021], how do the results read?
mean Z score: -0.189; ATP luminescence, replicate 1: 41171; ATP luminescence, replicate 2: 40948; Call: inactive

For Dop1R1 (Dopamine 1-like receptor 1) [DRSC16652], what was measured?
mean Z score: -1.05; ATP luminescence, replicate 1: 31335; ATP luminescence, replicate 2: 42696; Call: inactive

How did the screen score Dop1R1 (Dopamine 1-like receptor 1) [DRSC23514]?
mean Z score: -0.454; ATP luminescence, replicate 1: 41864; ATP luminescence, replicate 2: 55025; Call: inactive

How did the screen score 5-HT2A (5-hydroxytryptamine (serotonin) receptor 2A) [DRSC11990]?
mean Z score: -0.603; ATP luminescence, replicate 1: 27850; ATP luminescence, replicate 2: 27679; Call: inactive

Which result is listed for 5-HT2A (5-hydroxytryptamine (serotonin) receptor 2A) [DRSC39711]?
mean Z score: -0.454; ATP luminescence, replicate 1: 57545; ATP luminescence, replicate 2: 50395; Call: inactive

For ZnT41F (Zinc transporter 41F) [DRSC04850], what does the deposit list?
mean Z score: -0.145; ATP luminescence, replicate 1: 29290; ATP luminescence, replicate 2: 32787; Call: inactive

Just “ATP luminescence, replicate 2” (2 entries from above):
Dop1R1 (Dopamine 1-like receptor 1) [DRSC13021] = 40948
Dop1R1 (Dopamine 1-like receptor 1) [DRSC16652] = 42696
